{"source": "PubChem BioAssay AID540276", "about": "(National Center for Advancing Translational Sciences (NCATS), 2011)", "note": "Where “and” joins values, the source holds several entries; their conditions need not be identical. Equal values may be shown once. Among all 300,000 compounds or so, about 5,400 (1.8%) were called active. The inconclusive results got no clear call from the source; some entries with a clear call stand among them for comparison. Calls follow the shape of the full dose curve; tested in HEK293 cells. A potency beside an inconclusive call is a rough fit, not a confirmed value. % is scaled to controls: 0 for no effect and ±100 for the full control effect; potency is read from the fitted curve at half-maximal effect.", "data": [{"experiment": "qHTS for inhibitors of binding or entry into cells for Marburg Virus", "conditions": "Marburg virus pseudotyped entry inhibition, cell reporter; activity change, negative = inhibition: at 37.8 µM (top of the series) unless noted", "values": [{"smiles": "CN(Cc1ccccc1)S(=O)(=O)c1ccc(OCC(=O)NCc2ccncc2)cc1", "Potency": "inconclusive: 7.08 µM [inhibitor, partial curve, poor fit]"}, {"smiles": "Cc1ccc(NCc2nnc(SCC(=O)N3CCc4ccccc43)n2C)cc1", "activity change, negative = inhibition": "inactive: 0.221%"}, {"smiles": "CC(=O)c1cc(OC(=O)c2ccncc2)ccc1OC(=O)c1ccncc1", "Potency": "inconclusive: 5.62 µM [activator, single point]"}, {"smiles": "O=C1C2C3C=CC(C3)C2C(=O)N1c1ccc(Cc2ccncc2)cc1", "note": "(configuration not stated)", "Potency": "inconclusive: 6.31 µM [inhibitor, partial curve, poor fit]"}, {"smiles": "c1ccc(-c2ccc(SCc3cccnc3)nn2)nc1", "activity change, negative = inhibition": "inactive: -15.7% [at 46.1 µM]"}, {"smiles": "Cc1ccc(-c2nc3ccccc3c(=O)n2NC(=O)c2cccs2)cc1", "Potency": "inconclusive: 29.1 µM [activator, partial curve, poor fit]"}, {"smiles": "COc1ccc(C(C(=O)NCC2CCCO2)N(Cc2cccs2)C(=O)c2snc(C(N)=O)c2N)cc1OC", "note": "(configuration not stated)", "activity change, negative = inhibition": "inactive: 10.1% [at 46.1 µM]"}, {"smiles": "COc1ccccc1OCC(=O)NCC1(N2CCOCC2)CCCCC1", "activity change, negative = inhibition": "inactive: -15.1% [at 46.1 µM]"}, {"smiles": "CC(C)(C=O)Cc1cc(C(C)(C)C)c(O)c(C(C)(C)C)c1", "Potency": "inconclusive: 0.126 µM [inhibitor, full curve]"}, {"smiles": "Cc1ccc(CN2CC(N3CCN(CC4CC4)CC3)CS2(=O)=O)cc1", "note": "(configuration not stated)", "Potency": "inconclusive: 0.112 µM [activator, full curve, poor fit]"}, {"smiles": "Cc1cc2ccccn2c1C(=O)Nc1ccc(Cl)cc1", "Potency": "inconclusive: 35.5 µM [inhibitor, single point]"}, {"smiles": "O=C(CSc1nc(-c2ccc(F)cc2)cs1)NCC1CCCO1", "note": "(configuration not stated)", "activity change, negative = inhibition": "inactive: -16.2% [at 46.1 µM]"}, {"smiles": "Cc1cc(NC(=O)CSc2nc(-c3cccs3)cc(C(F)(F)F)n2)no1", "Potency": "inactive and inconclusive: 1.64 µM [inhibitor, full curve]"}, {"smiles": "Clc1nnc(NN=C2CCCC2)c2ccccc12", "Potency": "inconclusive: 3.55 µM [activator, single point]"}, {"smiles": "N/C(=N\\OC(=O)Cc1ccc(-c2ccccc2)cc1)c1cccc([N+](=O)[O-])c1", "activity change, negative = inhibition": "inactive: -1.63%"}, {"smiles": "Cc1cccc(-c2nnc(SCc3nc4ccccc4[nH]3)n2Cc2ccco2)c1", "Potency": "inconclusive: 8.91 µM [inhibitor, partial curve]"}, {"smiles": "CCOC(=O)c1c(NC(=O)CSc2nc3ccccc3[nH]2)sc2c1CC(C)(C)NC2(C)C", "Potency": "inconclusive: 11.2 µM [inhibitor, partial curve, poor fit]"}, {"smiles": "Cc1ccc(C(=S)N2CCCCCC2)cc1", "activity change, negative = inhibition": "inactive: 21.7%"}, {"smiles": "CC(=O)Cn1cnc2sc(-c3ccccc3)cc2c1=O", "activity change, negative = inhibition": "inactive: -0.622% [at 46.1 µM]"}, {"smiles": "CCOC(=O)CN(C)C(=O)CCc1nnc(-c2ccc(-c3ccccc3)cc2)o1", "activity change, negative = inhibition": "inactive: 13.4% [at 46.1 µM]"}, {"smiles": "CC(C)Cc1ccc(S(=O)(=O)Nc2ccc3[nH]c(=O)[nH]c3c2)cc1", "Potency": "inconclusive: 2 µM [inhibitor, partial curve, poor fit]"}, {"smiles": "Cc1[nH]n(-c2ccccc2)c(=O)c1CCOC(=O)c1cccc(C(F)(F)F)c1", "Potency": "inconclusive: 29.1 µM [inhibitor, partial curve, poor fit]"}, {"smiles": "O=[N+]([O-])c1ccc(C(O)CN=Cc2ccc(O)cc2O)cc1", "note": "(configuration not stated)", "Potency": "inconclusive: 11.2 µM [inhibitor, partial curve, poor fit]"}, {"smiles": "O=C(C1CCCCC1)N(CCN1CCCC1)c1nc2ccccc2s1", "Potency": "inconclusive: 5.62 µM [activator, single point]"}, {"smiles": "C/C(=N\\NC(=O)c1ccc(NS(=O)(=O)c2cccs2)cc1)c1ccccc1", "activity change, negative = inhibition": "inactive: 7.27%"}, {"smiles": "CCC(C(=O)NC1CCCC1)N(C(=O)Cn1nnc(-c2ccc(C)o2)n1)c1ccccc1OC", "note": "(configuration not stated)", "Potency": "inconclusive: 11.2 µM [inhibitor, partial curve, poor fit]"}, {"smiles": "O=C(NCCc1c[nH]c2ccccc12)c1ccc2c(c1)OCO2", "Potency": "inconclusive: 0.794 µM [activator, full curve, poor fit]"}, {"smiles": "O=C(Nc1ccc2sccc2c1)c1ccc(Cl)s1", "activity change, negative = inhibition": "inactive: 0.138%"}, {"smiles": "CS(=O)(=O)c1ccc(C(=O)OCC(=O)NC(=O)C2COc3ccccc3O2)cc1[N+](=O)[O-]", "note": "(configuration not stated)", "activity change, negative = inhibition": "inactive: -25.8%"}, {"smiles": "CCN1CCN(S(=O)(=O)c2ccc(Cl)c(C(=O)Nc3ccccc3N3CCCC3)c2)CC1", "activity change, negative = inhibition": "inactive: -2.8%"}, {"smiles": "CCCCSCc1ccc(C(=O)O)o1", "Potency": "inconclusive: 0.092 µM [activator, full curve, poor fit]"}, {"smiles": "CCc1ccc(NC(=O)N(C2CCCCC2)C(C)c2cccnc2)cc1", "note": "(configuration not stated)", "Potency": "inconclusive: 17.8 µM [activator, single point]"}, {"smiles": "Cc1ccnc(NC(=O)COc2ccc3c(c2)CCC3)c1", "Potency": "inconclusive: 11.2 µM [inhibitor, partial curve, poor fit]"}, {"smiles": "CCN(CC)S(=O)(=O)c1cc(NC(=O)CSc2nc3c(cc2C#N)C(=O)CC(C)(C)C3)ccc1C", "Potency": "inconclusive: 1.16 µM [activator, single point]"}, {"smiles": "Cc1cccc(NCC(=O)NNC(=S)Nc2ccccc2)c1", "Potency": "inconclusive: 0.282 µM [inhibitor, full curve, poor fit]"}, {"smiles": "CC(CCc1ccccc1)NC(=O)c1ccc(Br)o1", "note": "(configuration not stated)", "Potency": "inconclusive: 0.0411 µM [inhibitor, full curve]"}, {"smiles": "O=C(O)c1cccc(NC(=O)c2ccc(N3C(=O)c4ccc(C(=O)Nc5cccc(C(=O)O)c5)cc4C3=O)cc2)c1", "activity change, negative = inhibition": "inactive: -2.18% [at 46.1 µM]"}, {"smiles": "Cc1cc(C)cc(C(=O)Nc2ccc(N3CCCC3)cc2)c1", "Potency": "inconclusive: 0.501 µM [activator, full curve, poor fit]"}, {"smiles": "COc1ccc(NC(=O)C#Cc2ccccc2)cc1", "Potency": "inconclusive: 14.1 µM [inhibitor, single point]"}, {"smiles": "CCN1CCN(C(=O)C2CCCN(c3ncnc4c3nc3n4CCCCC3)C2)CC1", "note": "(configuration not stated)", "Potency": "inconclusive: 35.5 µM [inhibitor, single point]"}, {"smiles": "O=C(Nc1ccc(F)cc1)C(Sc1nc2ccccc2[nH]1)c1ccccc1", "note": "(configuration not stated)", "Potency": "inconclusive: 25.9 µM [inhibitor, partial curve, poor fit]"}, {"smiles": "CN1C2C=C3C(C#N)=C(N)C(C#N)(C#N)C(c4ccc(Br)cc4)C3C1CC2", "note": "(configuration not stated)", "activity change, negative = inhibition": "inactive: 9.65%"}, {"smiles": "Cc1cccc(C(C)C)c1NC(=O)C1CN(S(=O)(=O)c2ccccc2)CCN1S(=O)(=O)c1ccccc1", "note": "(configuration not stated)", "Potency": "inconclusive: 17.8 µM [inhibitor, single point]"}, {"smiles": "Cc1cccc([C@@H]2C[C@H]3CN(Cc4cccc(Cl)c4)C(=O)[C@]34CCCN24)n1", "Potency": "inconclusive: 11.2 µM [inhibitor, partial curve, poor fit]"}, {"smiles": "Cc1ccc(Cn2ccc(NC(=O)c3nn(C)cc3Cl)n2)cc1", "activity change, negative = inhibition": "inactive: 6.03% [at 46.1 µM]"}, {"smiles": "O=S(=O)(O)c1cc(O)c2c(O)c(N=Nc3cc(Cl)ccc3O)c(S(=O)(=O)O)cc2c1", "Potency": "inconclusive: 2.24 µM [inhibitor, partial curve, poor fit]"}, {"smiles": "O=[N+]([O-])c1ccc(N=Nc2ccc(O)c3ccccc23)cc1", "Potency": "inconclusive: 31.6 µM [inhibitor, single point]"}, {"smiles": "CCn1cc(C2=NC(C)CO2)c2ccccc21", "note": "(configuration not stated)", "Potency": "inconclusive: 1.83 µM [activator, single point]"}, {"smiles": "O=C(NCC(=O)N1CCN(S(=O)(=O)c2cccc(F)c2)CC1)c1ccc(Br)o1", "Potency": "inconclusive: 0.501 µM [inhibitor, single point]"}, {"smiles": "Cc1ccc(-c2nnn(CC(=O)N(CC(=O)NC3CCCC3)c3cnc4ccccc4c3)n2)o1", "Potency": "inactive"}, {"smiles": "c1ccc(-c2nc(-n3ccnc3)nc(-n3ccnc3)n2)cc1", "Potency": "inconclusive: 10.3 µM [inhibitor, partial curve, poor fit]"}, {"smiles": "CCN(CC)CCN(C(=O)c1ccc(Br)s1)c1nc2cc3c(cc2s1)OCCO3", "Potency": "inconclusive: 3.16 µM [activator, single point]"}, {"smiles": "COc1ccc(C2C(C#N)=C(N)Oc3n[nH]c(C)c32)cc1CN1CCN(c2ccc(F)cc2)CC1", "note": "(configuration not stated)", "Potency": "inconclusive: 25.9 µM [activator, single point]"}, {"smiles": "Cc1cc(-c2ccccc2)nc2[n+]1CCN2C", "activity change, negative = inhibition": "inactive: -27.6%"}, {"smiles": "COCc1cc(C)n(CC(=O)Nc2ccc3c(c2)OCO3)c(=O)c1C#N", "activity change, negative = inhibition": "inactive: 11.4% [at 46.1 µM]"}, {"smiles": "CC1(C)CC(=O)C(C=Nc2ccc(O)cc2)=C(O)C1", "activity change, negative = inhibition": "inactive: -12.8%"}, {"smiles": "COc1ccc([C@H]2C[C@H](O)[C@@H](n3cc(COC(=O)c4ccccc4)nn3)CN2C(=O)C2CCCCC2)cc1", "Potency": "inconclusive: 0.315 µM [activator, full curve, poor fit]"}, {"smiles": "OC1(c2cccc(C(F)(F)F)c2)CCN(c2ncnc3c2[nH]c2ccc(F)cc23)CC1", "Potency": "active: 3.98 µM"}, {"smiles": "Cc1cc(C(F)F)nn1CC(=O)NCc1ccc(Cl)cc1Cl", "activity change, negative = inhibition": "inactive: 17.8%"}, {"smiles": "COc1cc(C(=O)O/N=C2\\CCCc3c2ccc(OC)c3[N+](=O)[O-])cc(OC)c1OC", "Potency": "inconclusive: 11.2 µM [activator, partial curve, poor fit]"}, {"smiles": "COc1ccc(-n2cc(-c3ccccc3)[n+]3c2CCCCC3)cc1", "Potency": "inconclusive: 10 µM [inhibitor, partial curve, poor fit]"}, {"smiles": "COc1ccc(C(C)=O)cc1COC(=O)CNC(=O)c1ccc(F)cc1", "Potency": "inconclusive: 15.8 µM [activator, single point]"}, {"smiles": "O=C(CSc1ccc(-c2ccco2)nn1)NC1CCCC1", "activity change, negative = inhibition": "inactive: 1.88% [at 46.1 µM]"}, {"smiles": "CCOC(=O)CCc1c(C(=O)OCC)[nH]c(CC)c1C(=O)OCc1ccccc1", "Potency": "inconclusive: 2.24 µM [inhibitor, partial curve, poor fit]"}, {"smiles": "COc1ccc(CN(C(=O)c2nsc(Cl)c2Cl)C(C(=O)NC2CCCC2)c2ccc(C)cc2)cc1", "note": "(configuration not stated)", "Potency": "inconclusive: 6.31 µM [inhibitor, partial curve, poor fit]"}, {"smiles": "CCC(C)(C(=O)NC1CCCCC1)N(Cc1ccco1)C(=O)CC1NC(=O)NC1=O", "note": "(configuration not stated)", "Potency": "inconclusive: 31.6 µM [activator, single point]"}, {"smiles": "Cn1c(CN2CCCC2)nc2cc(NC(=O)Nc3ccccc3)ccc21", "activity change, negative = inhibition": "inactive: 12.5%"}]}]}
